This is one part of the list.
What was measured:
Assay in all cases: log2 fold change, soluble protein after heating vs DMSO (PISA); higher = thermal stabilisation; K562 lysate, 10 uM; active = over 0.2 and 3.5 SD of the protein, either way, in both replicates (recomputed)
erlotinib = compound: C#Cc1cccc(Nc2ncnc3cc(OCCOC)c(OCCOC)cc23)c1 [erlotinib]
In short: (§1)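 Soluble protein was defined as the supernatant remaining after 21,000xg for 90 min, following pooling of heated aliquots and adjustment to 0.5% NP-40 at 4°C. Before that, crude K562 extract at 1 mg/mL protein in PBS pH 7.4 with 1 mM MgCl2 was treated with 10 μM compound for 30 min and heated for 3 min across 48°C-58°C. Quantification used TMTpro 16plex LC-MS/MS with channel sums equalised, and values are log-two fold changes in thermal stability relative to solvent controls from duplicates.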

Amino acid sequences for entries named in this document (tags omitted). A change or cut given only in a name is not applied to a line headed by its entry.
UniProt P38435: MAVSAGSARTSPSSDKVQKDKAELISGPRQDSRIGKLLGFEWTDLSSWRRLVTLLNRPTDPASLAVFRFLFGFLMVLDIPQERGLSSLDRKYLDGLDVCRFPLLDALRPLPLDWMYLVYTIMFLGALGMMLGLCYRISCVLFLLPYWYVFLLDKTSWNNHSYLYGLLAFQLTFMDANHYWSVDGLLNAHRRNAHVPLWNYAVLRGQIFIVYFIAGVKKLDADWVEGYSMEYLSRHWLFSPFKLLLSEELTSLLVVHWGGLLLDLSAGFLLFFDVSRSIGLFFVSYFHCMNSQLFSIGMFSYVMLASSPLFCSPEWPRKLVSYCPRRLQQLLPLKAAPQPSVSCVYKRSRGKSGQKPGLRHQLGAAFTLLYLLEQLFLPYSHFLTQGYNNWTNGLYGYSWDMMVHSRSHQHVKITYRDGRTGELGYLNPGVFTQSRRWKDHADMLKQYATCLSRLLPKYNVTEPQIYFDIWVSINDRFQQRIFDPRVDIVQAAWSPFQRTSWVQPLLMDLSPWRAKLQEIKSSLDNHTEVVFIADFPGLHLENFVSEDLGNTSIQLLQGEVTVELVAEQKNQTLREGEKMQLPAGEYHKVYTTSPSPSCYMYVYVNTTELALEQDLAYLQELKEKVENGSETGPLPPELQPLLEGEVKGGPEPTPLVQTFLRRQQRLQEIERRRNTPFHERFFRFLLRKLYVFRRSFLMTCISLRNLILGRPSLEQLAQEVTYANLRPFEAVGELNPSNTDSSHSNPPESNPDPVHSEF
UniProt A6NDN3: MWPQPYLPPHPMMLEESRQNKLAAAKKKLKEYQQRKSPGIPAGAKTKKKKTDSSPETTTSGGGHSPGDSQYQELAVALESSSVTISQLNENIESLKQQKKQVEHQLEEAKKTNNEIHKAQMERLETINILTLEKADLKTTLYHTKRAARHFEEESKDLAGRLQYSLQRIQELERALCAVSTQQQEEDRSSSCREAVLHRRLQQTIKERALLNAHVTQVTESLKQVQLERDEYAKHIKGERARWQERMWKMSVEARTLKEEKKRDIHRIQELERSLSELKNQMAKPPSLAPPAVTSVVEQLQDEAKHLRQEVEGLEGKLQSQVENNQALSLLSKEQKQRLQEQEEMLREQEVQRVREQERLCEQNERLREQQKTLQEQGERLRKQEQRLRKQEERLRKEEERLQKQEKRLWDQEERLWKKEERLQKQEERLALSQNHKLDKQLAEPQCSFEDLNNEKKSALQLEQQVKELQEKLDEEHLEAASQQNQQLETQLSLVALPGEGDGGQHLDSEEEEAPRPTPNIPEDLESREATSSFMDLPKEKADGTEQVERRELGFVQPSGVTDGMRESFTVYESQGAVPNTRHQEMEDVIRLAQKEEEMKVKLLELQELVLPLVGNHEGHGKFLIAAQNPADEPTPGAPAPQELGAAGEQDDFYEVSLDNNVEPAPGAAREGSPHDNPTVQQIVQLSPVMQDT
UniProt Q92820: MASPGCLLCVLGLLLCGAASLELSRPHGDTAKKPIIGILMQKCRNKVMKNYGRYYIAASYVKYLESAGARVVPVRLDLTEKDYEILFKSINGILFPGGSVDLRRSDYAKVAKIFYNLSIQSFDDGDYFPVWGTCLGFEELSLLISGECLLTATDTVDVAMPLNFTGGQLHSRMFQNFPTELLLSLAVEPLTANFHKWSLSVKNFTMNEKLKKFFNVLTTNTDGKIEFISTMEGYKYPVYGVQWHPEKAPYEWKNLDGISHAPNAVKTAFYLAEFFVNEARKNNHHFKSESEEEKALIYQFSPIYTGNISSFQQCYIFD
UniProt Q9Y692: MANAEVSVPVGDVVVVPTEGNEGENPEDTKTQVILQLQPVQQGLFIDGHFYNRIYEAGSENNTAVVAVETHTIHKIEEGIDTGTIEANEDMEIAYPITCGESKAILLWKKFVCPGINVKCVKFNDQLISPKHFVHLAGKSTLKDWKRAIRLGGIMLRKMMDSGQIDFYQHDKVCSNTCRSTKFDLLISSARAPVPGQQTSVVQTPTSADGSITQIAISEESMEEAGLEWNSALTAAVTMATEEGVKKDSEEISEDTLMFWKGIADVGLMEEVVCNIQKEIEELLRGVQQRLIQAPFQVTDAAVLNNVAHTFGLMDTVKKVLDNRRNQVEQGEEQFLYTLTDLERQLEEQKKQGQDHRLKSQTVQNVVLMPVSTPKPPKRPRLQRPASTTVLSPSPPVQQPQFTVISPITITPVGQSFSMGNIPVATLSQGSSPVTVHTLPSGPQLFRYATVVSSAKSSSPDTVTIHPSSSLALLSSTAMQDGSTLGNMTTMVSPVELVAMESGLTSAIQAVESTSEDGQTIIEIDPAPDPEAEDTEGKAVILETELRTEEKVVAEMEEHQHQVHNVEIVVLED
UniProt B7ZAQ6: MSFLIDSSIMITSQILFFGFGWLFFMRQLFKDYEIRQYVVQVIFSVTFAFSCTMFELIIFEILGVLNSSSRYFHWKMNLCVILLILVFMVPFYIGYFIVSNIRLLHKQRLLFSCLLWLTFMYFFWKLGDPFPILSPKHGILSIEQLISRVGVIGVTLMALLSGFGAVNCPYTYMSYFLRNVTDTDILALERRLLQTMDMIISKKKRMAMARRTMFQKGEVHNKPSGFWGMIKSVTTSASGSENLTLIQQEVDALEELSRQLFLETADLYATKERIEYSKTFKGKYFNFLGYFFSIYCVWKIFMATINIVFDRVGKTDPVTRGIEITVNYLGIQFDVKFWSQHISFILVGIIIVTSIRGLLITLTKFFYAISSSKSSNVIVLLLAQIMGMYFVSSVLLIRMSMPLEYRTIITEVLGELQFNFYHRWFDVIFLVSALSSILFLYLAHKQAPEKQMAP
UniProt Q9UHW5, whole entry, looked up: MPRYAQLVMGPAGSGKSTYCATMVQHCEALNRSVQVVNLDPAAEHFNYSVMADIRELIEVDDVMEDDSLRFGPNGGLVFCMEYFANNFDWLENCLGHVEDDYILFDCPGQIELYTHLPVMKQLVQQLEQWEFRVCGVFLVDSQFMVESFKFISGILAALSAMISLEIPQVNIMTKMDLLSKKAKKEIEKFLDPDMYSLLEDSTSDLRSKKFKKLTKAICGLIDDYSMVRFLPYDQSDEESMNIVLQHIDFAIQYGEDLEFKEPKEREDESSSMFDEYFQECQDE
UniProt Q5T7V8: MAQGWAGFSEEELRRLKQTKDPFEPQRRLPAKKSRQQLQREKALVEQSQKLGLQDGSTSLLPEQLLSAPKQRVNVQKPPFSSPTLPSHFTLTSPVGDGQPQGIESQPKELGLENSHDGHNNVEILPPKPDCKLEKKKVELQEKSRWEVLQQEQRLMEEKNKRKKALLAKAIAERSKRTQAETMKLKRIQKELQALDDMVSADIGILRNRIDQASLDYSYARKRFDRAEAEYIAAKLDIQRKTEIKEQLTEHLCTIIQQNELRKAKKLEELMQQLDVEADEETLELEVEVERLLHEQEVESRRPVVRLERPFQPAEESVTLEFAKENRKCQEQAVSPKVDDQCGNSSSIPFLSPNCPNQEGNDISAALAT
UniProt Q5VW38: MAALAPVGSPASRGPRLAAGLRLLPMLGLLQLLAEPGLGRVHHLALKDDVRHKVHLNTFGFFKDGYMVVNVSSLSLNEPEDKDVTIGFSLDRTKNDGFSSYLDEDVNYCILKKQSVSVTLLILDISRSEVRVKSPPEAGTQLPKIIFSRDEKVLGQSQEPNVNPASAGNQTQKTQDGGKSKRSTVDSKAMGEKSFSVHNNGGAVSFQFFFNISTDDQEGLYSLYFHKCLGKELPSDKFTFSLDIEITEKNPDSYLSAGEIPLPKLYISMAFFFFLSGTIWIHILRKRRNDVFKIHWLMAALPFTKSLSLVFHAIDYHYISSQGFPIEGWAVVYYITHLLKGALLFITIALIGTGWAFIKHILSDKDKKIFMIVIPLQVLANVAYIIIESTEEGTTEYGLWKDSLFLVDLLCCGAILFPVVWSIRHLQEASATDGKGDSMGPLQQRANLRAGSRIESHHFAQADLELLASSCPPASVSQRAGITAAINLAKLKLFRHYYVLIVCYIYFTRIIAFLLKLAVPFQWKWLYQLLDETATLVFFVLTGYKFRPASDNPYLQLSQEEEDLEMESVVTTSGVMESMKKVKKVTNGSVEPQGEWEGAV
UniProt Q9BVP2: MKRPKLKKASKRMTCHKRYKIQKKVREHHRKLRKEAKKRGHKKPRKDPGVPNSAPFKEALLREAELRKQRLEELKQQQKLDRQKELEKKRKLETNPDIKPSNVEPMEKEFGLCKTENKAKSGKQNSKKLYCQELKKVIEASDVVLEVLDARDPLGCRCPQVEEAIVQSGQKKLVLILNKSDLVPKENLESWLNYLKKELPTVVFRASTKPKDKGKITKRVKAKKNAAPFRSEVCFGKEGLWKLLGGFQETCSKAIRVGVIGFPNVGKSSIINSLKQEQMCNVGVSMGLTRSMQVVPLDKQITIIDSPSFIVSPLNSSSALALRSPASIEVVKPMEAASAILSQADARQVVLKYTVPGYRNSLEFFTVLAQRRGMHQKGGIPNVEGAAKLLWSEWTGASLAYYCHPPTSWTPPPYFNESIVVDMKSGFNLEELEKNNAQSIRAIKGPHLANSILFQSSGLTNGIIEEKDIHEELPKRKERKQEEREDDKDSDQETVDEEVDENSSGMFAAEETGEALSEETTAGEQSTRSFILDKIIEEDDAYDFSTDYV
UniProt Q96IJ6: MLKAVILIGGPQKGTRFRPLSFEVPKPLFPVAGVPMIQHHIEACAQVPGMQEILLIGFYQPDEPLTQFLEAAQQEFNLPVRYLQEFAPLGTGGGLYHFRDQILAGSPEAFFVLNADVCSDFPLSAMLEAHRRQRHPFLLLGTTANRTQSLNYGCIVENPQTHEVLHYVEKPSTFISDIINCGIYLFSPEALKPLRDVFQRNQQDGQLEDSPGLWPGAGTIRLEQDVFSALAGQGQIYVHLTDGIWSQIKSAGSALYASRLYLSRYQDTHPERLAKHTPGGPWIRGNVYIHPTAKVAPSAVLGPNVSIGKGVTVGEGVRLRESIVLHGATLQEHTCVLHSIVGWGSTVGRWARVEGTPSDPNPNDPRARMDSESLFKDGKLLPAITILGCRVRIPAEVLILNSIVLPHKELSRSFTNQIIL
UniProt P06280: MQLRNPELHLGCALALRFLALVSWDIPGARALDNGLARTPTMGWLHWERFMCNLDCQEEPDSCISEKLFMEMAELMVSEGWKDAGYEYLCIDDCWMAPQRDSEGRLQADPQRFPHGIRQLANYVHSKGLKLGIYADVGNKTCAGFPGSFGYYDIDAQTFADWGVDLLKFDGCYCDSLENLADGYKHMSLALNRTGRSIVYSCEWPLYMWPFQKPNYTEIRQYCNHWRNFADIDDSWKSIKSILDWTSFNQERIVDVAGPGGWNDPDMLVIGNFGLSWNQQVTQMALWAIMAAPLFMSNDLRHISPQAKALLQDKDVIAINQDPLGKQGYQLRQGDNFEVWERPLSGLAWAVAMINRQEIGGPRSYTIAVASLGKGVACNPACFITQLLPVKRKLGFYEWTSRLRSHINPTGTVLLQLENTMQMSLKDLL

[1] = compound: C/C(=N\NC(=O)C1=CC(=CC=C1)S(=O)(=O)N2CCOCC2)/C3=C(C=CC(=C3)Cl)O
In short: as §1

[2] = compound: C1=CC(=CC=C1C2=NC3=C(N2)C=C(C=C3)C(=O)N)OC4=CC=C(C=C4)Cl
In short: as §1

[3] = compound: C1=CC2=C(C=CC(=C2)/C=C\3/C(=O)NC(=NCC4=CC=CS4)S3)N=C1
In short: as §1

[4] = compound: C1=CC2=NC=CN=C2C=C1/C=C/3\C(=O)NC(=O)S3
In short: as §1

[5] = compound: C1=CC=C(C=C1)C2=NC(=C(N2)C3=CC=NC=C3)C4=CC(=C(C=C4)Cl)O
In short: as §1

[6] = compound: C1=CC=C2C(=C1)C3=NNC4=CC=CC(=C43)C2=O
In short: as §1

[7] = compound: C1CCN(C1)C(=O)NC2=CC=CC(=C2)NC3=NC=C(C(=N3)NCCC4=CN=CN4)Br
In short: as §1

[8] = compound: C1CN(CCC1(CC2=CC=C(C=C2)Cl)N)C3=NC=NC4=C3C=CN4
In short: as §1

IRAK-1-4 Inhibitor I = compound: C1COCCN1CCN2C3=CC=CC=C3N=C2NC(=O)C4=CC(=CC=C4)[N+](=O)[O-] [IRAK-1-4 Inhibitor I]
In short: as §1

ibrutinib = compound: C=CC(=O)N1CCC[C@@H](n2nc(-c3ccc(Oc4ccccc4)cc3)c3c(N)ncnc32)C1 [ibrutinib]
In short: as §1

[9] = compound: CC(=O)c1cnc2ccc(-c3cc(Cl)c(O)c(Cl)c3)nc2c1N[C@H]1CC[C@H](CN(C)C)CC1
In short: as §1

ralimetinib = compound: CC(C)(C)Cn1c(N)nc2ccc(-c3[nH]c(C(C)(C)C)nc3-c3ccc(F)cc3)nc21 [ralimetinib]
In short: as §1

[10] = compound: CC(C)(O)CC(=O)NCCn1ccc2ncnc(Nc3ccc(Oc4cccc(C(F)(F)F)c4)c(Cl)c3)c21
In short: as §1

[11] = compound: CC(C)C1=C2N=C(C=C(N2N=C1)NCC3=CC=CC=C3)NCCCCCCN
In short: as §1

[12] = compound: CC1=C(C(CC(=O)N1)C2=CC=C(C=C2)C(F)(F)F)C(=O)NC3=C(C=C4C(=C3)C=NN4)F
In short: as §1

[13] = compound: CC1=C(C2=C(C=C1)C(=O)C3=CC=CC=C3N2CCCN)C
In short: as §1

[14] = compound: CC1=C(C=C(C=C1)NC(=O)C2=CC(=CC=C2)C(C)(C)C#N)NC3=CC4=C(C=C3)N=CN(C4=O)C
In short: as §1

[15] = compound: CC1=C(C=C(C=C1)NC(=O)C2=CC(=CC=C2)N(C)C)NC(=O)C3=CC=C(C=C3)O
In short: as §1

[16] = compound: CC1=CC=C(C=C1)SC2=C3C=C(SC3=CN=C2)C(=O)N
In short: as §1

Measured: log2 fold change

GGCX (UniProt P38435)
inactive: erlotinib 0.001 | [1] -0.064 | [2] 0.015 | [3] -0.061 | [4] -0.042 | [5] 0.093 | [6] -0.096 | [7] 0.027 | [8] 0.081 | IRAK-1-4 Inhibitor I -0.026 | ibrutinib -0.063 | [9] -0.002 | ralimetinib 0.072 | [10] -0.088 | [11] -0.097 | [12] 0.037 | [13] 0.033 | [14] -0.031 | [15] 0.095 | [16] -0.045

GOLGA6B (UniProt A6NDN3)
inactive: erlotinib 0.092 | [1] -0.061 | [2] -0.082 | [3] 0.033 | [4] 0.08 | [5] -0.013 | [6] -0.054 | [7] 0.011 | [8] 0.032 | IRAK-1-4 Inhibitor I -0.022 | ibrutinib -0.034 | [9] 0.003 | ralimetinib -0.047 | [10] -0.187 | [11] -0.057 | [12] -0.127 | [13] -0.114 | [14] 0.045 | [15] 0.066 | [16] 0

GGH (UniProt Q92820)
inactive: erlotinib -0.004 | [1] 0.058 | [2] 0.034 | [3] 0.02 | [4] 0.007 | [5] -0.018 | [6] 0.048 | [7] 0.015 | [8] 0.017 | IRAK-1-4 Inhibitor I -0.003 | ibrutinib -0.011 | [9] -0.015 | ralimetinib 0.005 | [10] -0.067 | [11] 0.038 | [12] 0.019 | [13] 0.018 | [14] 0.071 | [15] -0.065 | [16] -0.001

GMEB1 (UniProt Q9Y692)
inactive: erlotinib -0.008 | [1] -0.083 | [2] -0.006 | [3] 0.018 | [4] 0.038 | [5] -0.003 | [6] 0.008 | [7] -0.028 | [8] 0.026 | IRAK-1-4 Inhibitor I -0.007 | ibrutinib -0.041 | [9] 0.12 | ralimetinib -0.045 | [10] -0.088 | [11] -0.028 | [12] 0.009 | [13] -0.034 | [14] -0.01 | [15] 0.021 | [16] 0.046

GPR89A (UniProt B7ZAQ6)
inactive: erlotinib 0.062 | [1] 0.02 | [2] -0.11 | [3] -0.098 | [4] 0.024 | [5] -0.037 | [6] -0.081 | [7] 0.061 | [8] -0.044 | IRAK-1-4 Inhibitor I 0.003 | ibrutinib -0.044 | [9] 0.028 | ralimetinib -0.051 | [10] -0.148 | [11] -0.103 | [12] 0.073 | [13] 0.006 | [14] 0.018 | [15] 0.059 | [16] -0.071

GPN3 isoform 2 (UniProt Q9UHW5)
inactive: erlotinib 0.003 | [1] -0.162 | [2] 0.068 | [3] -0.077 | [4] 0.018 | [5] -0.047 | [6] 0.083 | [7] -0.046 | [8] -0.019 | IRAK-1-4 Inhibitor I 0.055 | ibrutinib 0.016 | [9] -0.021 | ralimetinib -0.032 | [10] -0.01 | [11] 0 | [12] 0.045 | [13] -0.063 | [14] 0.001 | [15] 0.003 | [16] -0.049

GORAB (UniProt Q5T7V8)
inactive: erlotinib -0.002 | [1] 0.167 | [2] 0.038 | [3] 0.012 | [4] -0.048 | [5] 0.049 | [6] -0.064 | [7] -0.071 | [8] 0.027 | IRAK-1-4 Inhibitor I 0.014 | ibrutinib 0.051 | [9] 0.049 | ralimetinib 0.008 | [10] -0.022 | [11] 0.043 | [12] 0.015 | [13] 0.035 | [14] -0.051 | [15] 0.02 | [16] 0.026

GPR107 isoform 2 (UniProt Q5VW38)
inactive: erlotinib 0.008 | [1] -0.07 | [2] 0.016 | [3] -0.008 | [4] -0.054 | [5] 0.045 | [6] 0 | [7] -0.021 | [8] 0.008 | IRAK-1-4 Inhibitor I 0.039 | ibrutinib 0.05 | [9] -0.017 | ralimetinib -0.072 | [10] -0.12 | [11] -0.005 | [12] -0.003 | [13] -0.089 | [14] 0 | [15] 0.036 | [16] -0.017

GNL3 (UniProt Q9BVP2)
inactive: erlotinib 0.004 | [1] -0.072 | [2] 0.002 | [3] 0.009 | [4] -0.062 | [5] 0.015 | [6] -0.011 | [7] 0.021 | [8] 0.014 | IRAK-1-4 Inhibitor I 0.033 | ibrutinib 0.023 | [9] -0.063 | ralimetinib -0.026 | [10] -0.021 | [11] 0.05 | [12] -0.005 | [13] -0.073 | [14] 0.009 | [15] -0.007 | [16] -0.057

GMPPA (UniProt Q96IJ6)
inactive: erlotinib -0.001 | [1] 0.021 | [2] -0.025 | [3] 0.012 | [4] -0.04 | [5] 0.029 | [6] -0.056 | [7] 0.043 | [8] -0.01 | IRAK-1-4 Inhibitor I 0.008 | ibrutinib 0.021 | [9] -0.009 | ralimetinib 0.014 | [10] 0.003 | [11] 0.008 | [12] -0.018 | [13] -0.03 | [14] 0.024 | [15] 0.014 | [16] -0.017

GLA (UniProt P06280)
inactive: erlotinib 0 | [1] -0.015 | [2] -0.026 | [3] 0.009 | [4] -0.017 | [5] 0.033 | [6] -0.1 | [7] -0.044 | [8] 0.036 | IRAK-1-4 Inhibitor I 0.002 | ibrutinib 0.002 | [9] -0.017 | ralimetinib 0.004 | [10] -0.031 | [11] -0.017 | [12] 0.018 | [13] -0.016 | [14] -0.017 | [15] -0.011 | [16] -0.014
